# Results of single-concentration screens

By UniProt entry, the sequences of proteins in these tests, tags left out. Residues count along the entry.
UniProt A4I591, 1-473: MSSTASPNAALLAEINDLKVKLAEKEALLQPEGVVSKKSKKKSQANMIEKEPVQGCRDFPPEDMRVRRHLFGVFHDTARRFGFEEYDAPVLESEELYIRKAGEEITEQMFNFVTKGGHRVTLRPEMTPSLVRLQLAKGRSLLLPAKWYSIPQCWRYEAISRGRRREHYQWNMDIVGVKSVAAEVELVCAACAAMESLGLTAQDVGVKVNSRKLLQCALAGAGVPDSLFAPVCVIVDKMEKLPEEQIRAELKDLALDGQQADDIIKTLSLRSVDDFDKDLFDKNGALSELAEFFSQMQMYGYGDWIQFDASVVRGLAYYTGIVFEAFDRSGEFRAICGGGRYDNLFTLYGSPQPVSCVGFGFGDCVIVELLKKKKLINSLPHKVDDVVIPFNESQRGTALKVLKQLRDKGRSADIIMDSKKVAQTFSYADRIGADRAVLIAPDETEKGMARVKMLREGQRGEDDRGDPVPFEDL
UniProt I6X8D2, whole entry: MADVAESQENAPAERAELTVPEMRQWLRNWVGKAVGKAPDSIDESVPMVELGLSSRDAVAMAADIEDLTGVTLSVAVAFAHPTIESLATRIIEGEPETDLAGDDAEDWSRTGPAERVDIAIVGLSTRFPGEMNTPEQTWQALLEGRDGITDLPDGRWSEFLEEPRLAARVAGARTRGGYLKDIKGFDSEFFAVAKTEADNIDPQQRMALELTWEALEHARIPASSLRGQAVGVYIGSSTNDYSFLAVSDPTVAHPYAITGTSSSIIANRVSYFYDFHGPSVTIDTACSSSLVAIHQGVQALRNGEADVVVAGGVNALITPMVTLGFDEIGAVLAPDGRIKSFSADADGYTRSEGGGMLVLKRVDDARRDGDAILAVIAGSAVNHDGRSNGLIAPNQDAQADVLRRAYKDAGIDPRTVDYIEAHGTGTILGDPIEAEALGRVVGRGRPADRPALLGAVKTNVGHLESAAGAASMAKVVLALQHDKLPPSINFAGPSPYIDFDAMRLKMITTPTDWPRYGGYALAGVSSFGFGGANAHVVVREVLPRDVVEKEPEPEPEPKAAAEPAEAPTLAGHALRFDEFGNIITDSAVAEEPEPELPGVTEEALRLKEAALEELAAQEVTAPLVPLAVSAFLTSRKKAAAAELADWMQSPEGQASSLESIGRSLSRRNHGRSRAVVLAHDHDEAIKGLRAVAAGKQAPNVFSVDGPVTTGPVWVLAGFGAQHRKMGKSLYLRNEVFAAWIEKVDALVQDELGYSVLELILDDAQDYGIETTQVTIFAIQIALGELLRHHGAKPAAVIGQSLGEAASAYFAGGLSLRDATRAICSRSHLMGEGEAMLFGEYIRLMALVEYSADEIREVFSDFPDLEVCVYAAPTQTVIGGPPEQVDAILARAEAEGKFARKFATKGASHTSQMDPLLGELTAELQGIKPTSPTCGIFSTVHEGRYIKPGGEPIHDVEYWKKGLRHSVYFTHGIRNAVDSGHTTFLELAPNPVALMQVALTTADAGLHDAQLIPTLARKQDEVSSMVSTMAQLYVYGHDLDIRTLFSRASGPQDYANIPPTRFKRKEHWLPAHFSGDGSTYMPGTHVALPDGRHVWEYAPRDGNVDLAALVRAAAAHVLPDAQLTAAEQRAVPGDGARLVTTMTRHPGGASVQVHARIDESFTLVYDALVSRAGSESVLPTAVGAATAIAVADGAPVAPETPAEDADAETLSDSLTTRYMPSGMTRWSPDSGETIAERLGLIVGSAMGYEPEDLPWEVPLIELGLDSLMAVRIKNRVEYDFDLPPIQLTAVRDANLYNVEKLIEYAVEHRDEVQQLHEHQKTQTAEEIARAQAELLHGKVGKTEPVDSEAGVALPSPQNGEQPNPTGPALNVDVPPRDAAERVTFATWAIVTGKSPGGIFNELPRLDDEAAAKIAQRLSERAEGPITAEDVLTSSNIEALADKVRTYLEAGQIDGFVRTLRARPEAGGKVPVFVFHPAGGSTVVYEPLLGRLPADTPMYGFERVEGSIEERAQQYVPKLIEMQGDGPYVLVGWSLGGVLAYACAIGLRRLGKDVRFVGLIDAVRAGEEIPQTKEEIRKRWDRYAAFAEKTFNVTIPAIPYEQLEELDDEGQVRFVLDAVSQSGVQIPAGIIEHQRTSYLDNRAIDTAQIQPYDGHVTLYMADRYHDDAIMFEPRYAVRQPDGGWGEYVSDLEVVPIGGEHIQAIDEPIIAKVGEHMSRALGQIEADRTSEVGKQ

The filed quantity is “Percent Effect” (%).
How 0% and 100% were set is not recorded. Most values in the screen are low, and negative values occur.
The compounds are a random part of those screened.

A: 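Enzyme assay of histidyl-tRNA synthetase; the read-out is not stated. Target: Histidine-tRNA ligase, Leishmania infantum (UniProt A4I591). Concentration: 30 µM. Direction is inferred from retests: higher values go with stronger inhibition. The assay is labelled LdHisRS but filed under L. infantum. Of about 69,000 compounds tested this way, about 410 (0.6%) reached 50% or more in at least one test.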
B: 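Polyketide synthase Pks13, Mycobacterium tuberculosis (UniProt I6X8D2). Enzyme assay of the thioesterase domain of polyketide synthase 13; the read-out is not stated. Compounds at 30 µM. The record gives no direction; the compounds picked for IC50 retests had high values, so higher reads as stronger inhibition. About 67,000 compounds were tested under these conditions; 0.46% (about 300) showed 50% or more at least once.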
C: 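Cell assay of Leishmania donovani living inside macrophages; the read-out is not stated. Tested at 30 µM. The record gives no direction; compounds that gave an IC50 in retests scored well above the rest, so higher reads as stronger inhibition. Of about 69,000 compounds tested this way, about 1,000 (1.5%) reached 50% or more in at least one test.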

With CCCc1n[nH]c(C2CN(C(=O)c3n[nH]c4ccccc34)CCO2)n1 (stereo not shown) the screen gave A: 4.464%; B: -6.411%; C: 0.07579%.
With O=C(c1cccn1Cc1cccs1)N1CCC(C(=O)N2CCCC2)CC1 the screen gave A: 7.692%; B: -11.82%; C: 22.95%.
With Cn1ccnc1NC[C@@H]1CCC[C@@H]2CN(Cc3nccs3)C[C@@H]21 the screen gave A: 17.24%; B: -9.167%.
With CCN(CCS(=O)(=O)c1ccc(Cl)cc1)Cc1ccc(OC)c(OC)c1 the screen gave A: 13.51%; B: 0.2329%; C: 54.72%.
With O=C(OCC1CCCN1)c1cccc(NC(=O)c2ccco2)c1 (stereo not shown) the screen gave A: 1.961%; B: -3.887%.
With Cc1ccc(C(=O)NS(C)(=O)=O)cc1I the screen gave A: 5.714%; B: -8.609%; C: -5.032%.
With N#CCC(=O)NCc1nnc2n1CCN(Cc1ccsc1)C2 the screen gave A: 10.26%; B: 6.566%; C: 10.97%.
With CCCN1CCC(Cc2noc(-c3[nH]cnc3C)n2)CC1 the screen gave A: 24.47%; B: -13.31%; C: -21.02%.
With CCC/N=c1/c(NC(=O)NCCCOC)c(O)oc2ccccc12 the screen gave A: 15.93%; B: -11.63%; C: -57.89%.
With CC(=O)N1CCCC1c1cc(N2CCN(C3CCCC3)CC2)cc(C)n1 (stereo not shown) the screen gave A: 14.29%; B: -4.084%; C: 17.72%.
With O=C(O)C(F)(F)F.[H][C@@]12CCCO[C@]1([H])[C@H](OCC)CN2S(=O)(=O)c1cn(C)cn1 the screen gave C: -3.36%.
With COc1cc(CNC(C)c2ccc(F)c(F)c2)cc2c1OCCO2.O=C(O)C(=O)O (stereo not shown) the screen gave C: 16.28%.
With CC(C)(C)c1cc(NC(=O)CN(Cc2cccs2)Cc2cccs2)on1 the screen gave A: 14.47%; B: -0.3645%; C: 16.76%.
With N#CC(Sc1nnnn1C1CCOCC1)C1CCCCC1 (stereo not shown) the screen gave A: 10.68%; B: -7.927%; C: -16.5%.
With CCc1noc(C(C)N2CCN(CC(C)C)CC2)n1 (stereo not shown) the screen gave A: 3.448%; B: -23.9%; C: -13.34%.
With CS(=O)(=O)N1CCC[C@]2(C[C@@H](Oc3ncccc3F)CO2)C1.O=C(O)C(F)(F)F the screen gave C: 22.25%.
With Cc1cc(N(C)C)nc(N(C)Cc2csc(C)n2)n1 the screen gave A: 19.74%; B: -31.13%; C: 26.61%.
With Cc1nc(COC[C@]23COC[C@H]2CN(Cc2ccoc2)C3)cs1 the screen gave A: 22.64%; B: -14.01%.
With Fc1cccc(-c2nnn3c2COC(CNCc2nccs2)C3)c1.O=C(O)C(F)(F)F (stereo not shown) the screen gave C: 38.09%.
With CC(=O)N1CCN(c2cc(CCN)nc(C3CC3)n2)CC1 the screen gave A: -5.208%; B: 7.792%.
With Cc1cnc(CNC(=O)[C@@]23CCO[C@@H]2CCN(c2ncccn2)C3)cn1 the screen gave A: 13.64%; B: -4.014%.
With Cc1cccc(C(=O)N2CCN(C)CC2)c1NC(=O)c1ccncc1 the screen gave A: 20%; B: -24.35%; C: -12.84%.
With N#CC1(NC(=O)CN2CCC(c3ccnn3CCO)CC2)CCCC1 the screen gave A: 6.78%; B: -6.704%; C: -5.414%.
With O=S1(=O)COCCN1CCOc1ccccc1 the screen gave A: 11.29%; B: 0.2255%; C: 31.44%.
With CCc1n[nH]c(C2CN(C(=O)CCOCC(F)(F)F)CCO2)n1 (stereo not shown) the screen gave A: 1.087%; B: -6.471%; C: 18.2%.
With CC(C(=O)NCc1cn2cc(Br)ccc2n1)S(C)(=O)=O (stereo not shown) the screen gave A: 20.54%; B: -2.826%; C: 17.71%.
With Cc1cc(CNC(=O)N2CCN(c3nc(C)c(C)s3)CC2)no1 the screen gave A: 13.46%; B: -25.35%; C: 14.98%.
With CCOCC1CN(C(=O)N2CCCC2)Cc2cnn(C)c21 (stereo not shown) the screen gave A: 1.389%; B: 0.4006%; C: 2.077%.
With N#CC1COCCN1C(=O)c1ccc2[nH]cnc2c1 (stereo not shown) the screen gave A: 15.29%; B: 0.4117%; C: 6.429%.
With Cc1cn2c(n1)CCC(NC(=O)c1nc(C)ncc1Cl)C2 (stereo not shown) the screen gave A: 13.33%; B: -18.63%; C: 23.47%.

Some entries from above, unchanged:

{"compound": "Cc1cccc(C(=O)N2CCN(C)CC2)c1NC(=O)c1ccncc1", "A": 20, "B": -24.35, "C": -12.84}
{"compound": "Cn1ccnc1NC[C@@H]1CCC[C@@H]2CN(Cc3nccs3)C[C@@H]21", "A": 17.24, "B": -9.167}

Measurements from “University of Dundee, Small-Polar-MMV Screening Library” (2021), ChEMBL document CHEMBL3988442.